Data: PubChem BioAssay AID2685 (National Center for Advancing Translational Sciences (NCATS), 2010)
Some of the results follow. Shown are side measurements of this screen, not its main read-out; they come without a call. Most of these compounds were active or inconclusive in the main read-out, so they are no random draw. The note in brackets gives the kind of curve behind each potency; many fits are weak.

Assay: qHTS Assay for Lipid Storage Modulators in Drosophila S3 Cells;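 as to cell number change: cells counted by Cell Tracker Red CMTPX staining in the red channel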
Conditions: BODIPY lipid droplet fluorescence, 18-24 h; for cell number change: measured here: cell count max response, cells fed with added oleic acid
Method in brief: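 Drosophila S3 cells loaded with oleic acid (400 uM, as added) and compounds at several concentrations; lipid droplets imaged by 488-nm laser-scanning cytometry, 500–530 nm intensity and object ratio to cell channel. Percent activity normalized to 20 uM Triacsin C.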

[1] = measured here: lipid fluorescence (Fed channel) AC50, cells fed with added oleic acid
[2] = measured here: cell number channel AC50, cells fed with added oleic acid

SMILES	cell number change	AC50 [1]	AC50 [2]
Cc1ccc2c(N)[nH]nc2n1	-0.745%	6.51 µM [rising, single point]	–
COc1ccc(-c2noc3c2-c2nc(C4CCCCC4)sc2CC3)cc1	6.59%	29.1 µM [rising, single point]	–
Cn1c(CSCc2ccc(Cl)c(Cl)c2)nnc1SCC(=O)Nc1nccs1	-7.65%	4.61 µM [rising, full curve]	–
CCOC(=O)Cc1csc(NC(=O)CSc2nccn2C)n1	16.2%	11.6 µM [rising, partial curve, poor fit]	–
COc1cc(/C=C2\SC(=S)N(CCC(=O)N3CCN(C)CC3)C2=O)cc(OC)c1OC	15.1%	2.91 µM [falling, single point]	–
COC(=O)[C@@H](NC(=O)Nc1ccc2c(c1)OCCO2)C(C)C	-7.84%	–	–
CN(C(=O)CCN1C(=O)/C(=C/c2ccccc2F)SC1=S)C1CCS(=O)(=O)C1 (configuration not stated)	-22.8%	5.8 µM [falling, partial curve]	1.03 µM [falling, full curve, poor fit]
CCCOC1CCCN(C(=O)c2ccc(OC)c(OC3CCN(C(C)C)CC3)c2)C1 (configuration not stated)	-21.8%	29.1 µM [rising, single point]	–
Cc1[nH]c2ccccc2c1/C=N/NC(=O)CNC(=O)Cc1ccccc1	-23.9%	–	–
CCOC(=O)c1cc(S(=O)(=O)Nc2cccc(OC)c2)cn1C	-5.73%	–	3.66 µM [rising, single point]
O=C1c2ccccc2CCC12N=NCC2c1ccc(Br)cc1 (configuration not stated)	–	–	0.146 µM [rising, full curve, poor fit]
COC(=O)c1cc(OC)c(OC)cc1NC(=O)C(C)Sc1ccc(C)cc1 (configuration not stated)	–	–	1.64 µM [rising, partial curve]
Cc1ccc(O)c(-c2cc(-c3cccc(Br)c3)n[nH]2)c1	–	–	6.51 µM [rising, single point]
O=C(CCn1cnnn1)Nc1ccc(Cl)cc1Cl	-15.4%	6.51 µM [rising, single point]	–
COc1ccc(S(=O)(=O)N(C)C)cc1NC(=O)COC(=O)c1nn(C)c(=O)c2ccccc12	14.7%	5.17 µM [rising, single point]	0.092 µM [rising, full curve, poor fit]
CCC(=O)NCCCCNC(=O)CC	-3.5%	29.1 µM [falling, single point]	–
CC(C)C(=O)Nc1c2c(nc3c1CCC3)CCCC2	25%	0.517 µM [falling, partial curve]	–
CC(Oc1ccc(Cl)cc1)C(=O)NCCN1C(=O)S/C(=C\c2cccnc2)C1=O (configuration not stated)	-7.73%	32.6 µM [falling, single point]	–
COc1ccc(NC(=O)N[C@@H](CCSC)C(=O)O)cc1Cl	-63.8%	3.66 µM [falling, full curve, poor fit]	29.1 µM [falling, single point]
CCc1ccc(CN(C)C(=O)c2cc(COc3ccc(OC)cc3Cl)on2)nc1	8.1%	0.501 µM [rising, full curve, poor fit]	0.355 µM [rising, full curve, poor fit]
COc1cc(C(=O)NCC(=O)Nc2ccc(F)c(F)c2)ccc1OCC(=O)N1CCOCC1	-20.1%	7.31 µM [falling, partial curve, poor fit]	–

SMILES	cell number change	AC50 [1]	AC50 [2]
CC1(C)CC(=O)C(C(O)c2cccc([N+](=O)[O-])c2)C(C)(C)N1 (configuration not stated)	4.05%	–	–
COC(=O)C(CCSC)NC(=O)Cn1ncc2c(=O)oc3ccccc3c21 (configuration not stated)	-42%	32.6 µM [falling, single point]	29.1 µM [falling, single point]
Cc1cccc(OCc2nnc(SCC(=O)OC3CCCCC3)o2)c1	-1.29%	0.116 µM [falling, full curve, poor fit]	–
CC(C)[C@H](NC(=O)[C@@H]1Cc2ccccc2CN1C(=O)OC(C)(C)C)C(=O)NCC1CCCO1 (some centres not stated)	-0.763%	29.1 µM [rising, single point]	–
C=CCNc1nc(C(=O)OCC(=O)N(Cc2ccccc2)C(C)C)cs1	10.1%	0.92 µM [falling, full curve, poor fit]	0.82 µM [falling, single point]
Cc1ccc(C)c(OCC(=O)O/N=C(\N)c2ccccn2)c1	-16.6%	2.31 µM [falling, partial curve, poor fit]	–
Cc1sc(NC(=O)CN(C(=O)c2ccccc2F)C2CCCC2)c(C(N)=O)c1C	-0.901%	29.1 µM [falling, single point]	–
CCCN(CCC)CCNC(=O)C1CCN(S(=O)(=O)c2cccc3nsnc23)CC1	1.19%	–	–
CCOC(=O)NC1=NCC(C)S1 (configuration not stated)	4.09%	–	–
Cc1cc2nn(-c3cccc4ccccc34)nc2cc1N	–	0.651 µM [rising, single point]	–
O=C(CN(C(=O)CNC(=O)c1ccco1)c1ccc(F)cc1)NC1CCCC1	-11.8%	–	–
O=C(O)/C=C/c1ccc(S(=O)(=O)N(CCO)CCO)cc1	-18.9%	0.92 µM [falling, full curve]	–
Cc1ccc(OCC(=O)NCCNC(=O)c2ccco2)cc1	18.1%	0.206 µM [rising, single point]	–
Cc1ccc(C)c(S(=O)(=O)N2CCCCC2CCNC(=O)C(=O)NCCc2ccco2)c1 (configuration not stated)	-58.2%	5.8 µM [falling, full curve, poor fit]	20.6 µM [falling, partial curve]
C/C(=N\NC(=O)c1cc(C)nc2ccccc12)c1ccccn1	11.6%	–	–
COc1ccc(NC(=O)Nc2ccccc2SC)cc1	-19%	0.58 µM [falling, single point]	–
Cc1c(Cl)cccc1NC(=O)Nc1cc(C(C)(C)C)on1	-53.4%	14.6 µM [falling, partial curve]	13 µM [falling, partial curve]
Cc1cc(C(=O)Cn2cncn2)c(C)n1CCc1ccc(F)cc1	–	–	2.91 µM [rising, single point]
CCCCCCN=CC1=C(O)C(C(=O)OC)C(C)(C)CC1=O (configuration not stated)	-0.576%	1.16 µM [rising, full curve]	–
COc1cc(NC(=S)NC(=O)c2ccccc2F)ccc1NC(=O)c1cccs1	64.2%	–	6.51 µM [rising, partial curve, poor fit]
CCc1ccc(C(C)NC(=O)c2ccncc2)cc1 (configuration not stated)	-10.4%	6.51 µM [falling, single point]	–

A run of entries from further up:
SMILES	cell number change	AC50 [1]	AC50 [2]
Cc1c(Cl)cccc1NC(=O)Nc1cc(C(C)(C)C)on1	-53.4%	14.6 µM [falling, partial curve]	13 µM [falling, partial curve]
Cc1cc(C(=O)Cn2cncn2)c(C)n1CCc1ccc(F)cc1	–	–	2.91 µM [rising, single point]
CCCCCCN=CC1=C(O)C(C(=O)OC)C(C)(C)CC1=O (configuration not stated)	-0.576%	1.16 µM [rising, full curve]	–
COc1cc(NC(=S)NC(=O)c2ccccc2F)ccc1NC(=O)c1cccs1	64.2%	–	6.51 µM [rising, partial curve, poor fit]

(cont.)

SMILES	cell number change	AC50 [1]	AC50 [2]
Cc1noc(NS(=O)(=O)c2ccc(N/C=C\C(=O)c3cccc4ccccc34)cc2)c1C	-17.7%	–	–
NCCc1nnc(SCc2ccccc2)o1	-14.9%	–	–
O=C(NCCS(=O)(=O)NCc1ccc(F)cc1)c1ccc2c(c1)OCO2	-7.58%	–	–
Cc1ccc(C(=O)NCC(=O)OCc2nnc(-c3ccccc3)o2)cc1	13.9%	29.1 µM [rising, single point]	–
Cc1cc(=O)oc2cc(OCc3cc4c(cc3Cl)OCO4)ccc12	–	2.31 µM [falling, partial curve]	2.31 µM [falling, partial curve]
COc1ccc(/C(N)=N/OC(=O)CCC2CCCC2)cc1OC	–	7.31 µM [rising, partial curve]	–
COc1ccc(N(CC(=O)N2CCN(c3ccc(Cl)cc3)CC2)S(=O)(=O)c2c(C)noc2C)cc1	4.96%	29.1 µM [rising, single point]	–
O=C(CN1C(=O)c2ccccc2C1=O)NCC(=O)OCC(=O)c1cccc([N+](=O)[O-])c1	-20.4%	29.1 µM [falling, single point]	–
Cc1ccc(C(=O)N2CCN(c3ccccn3)CC2)cc1Cl	-17%	0.58 µM [falling, partial curve, poor fit]	–
COc1ccc(Br)cc1/C=N/NC(=O)CN1CCCCC1	7.45%	0.116 µM [rising, full curve]	–
O=C(O)/C=C/C(=O)N1CCN(c2ccccc2F)CC1	-19.9%	0.651 µM [falling, full curve, poor fit]	–
COc1nc(N)nc(N2CCOCC2)n1	-20.2%	7.31 µM [falling, partial curve, poor fit]	–
COc1ccc(OC)c(C(C)NC(=O)c2ccco2)c1 (configuration not stated)	-3.45%	–	–
O=C(O)c1cc2cccc(S(=O)(=O)N3CCCCC3)c2cc1O	-35.7%	–	0.146 µM [falling, full curve]
CC1=C(C(=O)OC(C)C)C(c2ccc3c(c2)OCO3)NC(=O)N1 (configuration not stated)	-25.5%	29.1 µM [falling, single point]	–
Cc1cc(=O)[nH]c(SCC(=O)Nc2ccc(S(N)(=O)=O)cc2)n1	-0.638%	6.51 µM [falling, partial curve]	–
CCN1CCN(C(=O)CCc2nnc(CCc3ccc(OC)cc3)o2)[C@@H](C)C1=O	-1.16%	18.4 µM [rising, single point]	–
Cc1ccc(C(=O)NC2CCC(C)CC2)s1 (configuration not stated)	–	–	0.146 µM [falling, full curve, poor fit]
CC(C)(Oc1ccc(Cl)cc1)C(=O)NCCCn1ccnc1	9.56%	1.84 µM [rising, single point]	0.092 µM [falling, full curve, poor fit]
FC(F)(F)c1ccc2c(c1)nc1n2CCCC1	131%	–	25.9 µM [rising, partial curve]
CCOC(=O)c1c(C)oc2ccc(NS(=O)(=O)c3ccc(C(=O)O)cc3)cc12	4.72%	0.0259 µM [falling, full curve, poor fit]	–
